No constants are given. Whether binding was seen depends on the method and setting. Binding seen in cells or lysates may run through a third protein. Binding calls can cover weak binding; strength is not graded here.
Target: Flag-NCOR2-013 (human)
Experiment: co-IP

- binding: binds
B1: JunB (protein, UniProt P17275 1-347)
chain: MCTKMEQPFYHDDSYTATGYGRAPGGLSLHDYKLLKPSLAVNLADPYRSLKAPGARGPGPEGGGGGSYFSGQGSDTGASLKLASSELERLIVPNSNGVITTTPTPPGQYFYPRGGGSGGGAGGAGGGVTEEQEGFADGFVKALDDLHKMNHVTPPNVSLGATGGPPAGPGGVYAGPEPPPVYTNLSSYSPASASSGGAGAAVGTGSSYPTTTISYLPHAPPFAGGHPAQLGLGRGASTFKEEPQTVPEARSRDATPPVSPINMEDQERIKVERKRLRNRLAATKCRKRKLERIARLEDKVKTLKAENAGLSSTAGLLREQVAQLKQKVMTHVSNGCQLLLGVKGHAF
